From PubChem BioAssay AID1508600 (Functional Genomics Laboratory (NCATS/FGL), 2020)
About 3,700 (7%) of roughly 53,000 sequences were called active.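 The calls were made as follows: active = gene knockdowns whose robust z-score for IL-1 alpha signal is at least 2 or at most -2, so actives lie on both sides; inactive = the rest.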 This is one part of the list.

experiment: Components of the Cytosolic LPS Sensing Pathway: Gene Identification via Genome-wide siRNA Screen; settings: RAW264.7 macrophages, IL-1a HTRF, actives lie on both sides, screened at 100 nM (by protocol), cells primed 5 h with Pam3CSK4 first;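 also: robust z of the log signal after scaling to non-targeting control siRNA wells of the plate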
In short: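 Supernatant IL-1a by HTRF from RAW264.7 cells primed with Pam3CSK4 (5 hours) and transfected with LipidA (24 hour) after 48h siRNA knockdown at 100 nM; cell viability checked with CellTiter-Glo.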

Row | Sequence | z-score
1 | GGGAUAAAACUCAAUAGUATT against BC043934 | inactive: -0.529
2 | GGGACUGGAACAAUAGAGGTT against BC030500 | inactive: 0.626
3 | GGUGCUUCACGUCGAUUACTT against Tdrd6 | inactive: -1.25
4 | GGCCAUGUAUGGAGAUUACTT against Wfdc21 | inactive: -0.0472
5 | GGCAAAACUGUCGAGGUCCTT against Uck1 | inactive: 1.85
6 | GGCUAUUAGAAGGAAAACUTT against Olfr8 | inactive: 0.864
7 | CGCAAUUUGAAUAUGCCUGTT against Fis1 | inactive: 0.142
8 | GGAAGUGGGUAGCAACCAATT against Fam166b | inactive: -0.495
9 | GCUCAUAAAAUGGCUACUGTT against Bex4 | inactive: 0.149
10 | GGAAAGUCACUCCUUAUAUTT against Gen1 | inactive: 0.361
11 | GGCCUUCACUGAUGAAUGUTT against Pramel32 | active: -2.21
12 | CCACUUAUAACUCAUAGUUTT against Ugt2b34 | inactive: 0.0725
13 | GCCCAUACUUCCUCUUUGATT against Npsr1 | inactive: 0.397
14 | GGUUCUCGGUAAAUCCUGCTT against Slc35b1 | inactive: -1.07
15 | GGAACAGAAACUAUUUAGATT against Zfp189 | inactive: 0.824
16 | GCUUCUUGAUGCUACUCAATT against Acap1 | inactive: -1.96
17 | GGCUGUAUUCAUGACAACCTT against Caskin1 | inactive: 0.898
18 | CCAAACACGACGUGAAGGUTT against Ubfd1 | inactive: 0.993
19 | GGAAAUAUCCAAGAAUCCCTT against Bbs4 | inactive: -0.0724
20 | GGACAUCACGAGCAUUUCATT against Faim2 | inactive: -1.6
21 | CGUAGAAAUCCCUCAUUUCTT against Olfr857 | inactive: 0.221
22 | GGUUAAAUGUCGUUUAUACTT against Rasa3 | inactive: 0.308
23 | GGUCAUUGGUAAUUUUACATT against Clip1 | inactive: 0.41

From no. 22 to 23, as listed above:
Row | Sequence | z-score
22 | GGUUAAAUGUCGUUUAUACTT against Rasa3 | inactive: 0.308
23 | GGUCAUUGGUAAUUUUACATT against Clip1 | inactive: 0.41

(list continues)

Row | Sequence | z-score
24 | CCGAUGUCGCUGUAAUUGGTT against Acsf3 | inactive: 0.0443
25 | GGUAAUGGGACUUGGUAGGTT against Olfr1338 | inactive: -0.056
26 | GGAAAGUGCCAUGAAGACCTT against Dbi | inactive: -1.42
27 | CCUAAGCCCUCUAAGGCAATT against Pik3r2 | inactive: -0.753
28 | GGUCCAGUUGGAGAUGACATT against Ube2d3 | inactive: -1.04
29 | GCGUGGAUUACAUUUCUCUTT against Depdc1a | inactive: 0.392
30 | GAAUGUUCACUGUUGGAUUTT against Olfr622 | inactive: 0.154
31 | AAUGCUCAGAAAGAAUAACTT against Sprr2e | inactive: -0.31
32 | GGCCCGUCACAUGAAGAAGTT against Ip6k3 | inactive: 0.238
33 | GGUUAAGUCCCUAGGACAUTT against Blzf1 | inactive: 0.998
34 | GGCAAAUGGGUUUUCUGCATT against Jam2 | inactive: -1.08
35 | GCAAAUAUAAAACUAGAGCTT against Zfp62 | inactive: -0.227
36 | GCCAAAAUCAUGGUGGAGATT against Mrgpra1 | inactive: -1.38
37 | GGAAAUGAAGGAACAUUACTT against Csmd1 | inactive: 1.59
38 | GGGAGGAUGUGACCUUUGATT against Tbc1d13 | inactive: -0.491
39 | GGAGAGUUCUGUUUAGUUATT against Cul5 | inactive: 0.114
40 | GAACGACAACCCGAUAAUGTT against Ttc9c | inactive: -0.141
41 | CCAUCACCGAAGUAAAAAATT against Tmsb15a | inactive: -0.622
42 | GGACUCCAUACCACCAAUATT against Vmn2r29 | inactive: 0.576
43 | GGCCAGUCUGGGAUUUUUGTT against 1700084P21Rik | inactive: 0.683
44 | CGUCCUGUCGGUAACAUUATT against Aff1 | inactive: -0.417
45 | GGAGAUUAUUACUUGAUGGTT against Exd2 | inactive: 1.09
46 | GGCCAUUUGUAUGUGCACCTT against Tgfbr1 | inactive: -0.806

An excerpt of these results, as a markdown table:

| Row | Sequence | z-score |
| --- | --- | --- |
| 45 | GGAGAUUAUUACUUGAUGGTT against Exd2 | inactive: 1.09 |
| 46 | GGCCAUUUGUAUGUGCACCTT against Tgfbr1 | inactive: -0.806 |

The results go on:

Row | Sequence | z-score
47 | GGAACCAACAGAGAAAACUTT against Hr | inactive: 0.317
48 | GCGGUGUGCUGGAUAAUUCTT against Vit | inactive: -1.63
49 | GCAAGUGUCUUGUCCCAGGTT against Adgra1 | inactive: 0.348
50 | GGUCAAGAAAUGGAAGCUGTT against Cbarp | inactive: -1.25
51 | GCUAUACAAAGGCUACUCUTT against Hectd3 | inactive: 0.379
52 | GCAGAACAUCCGUUCUCAGTT against Pih1d1 | inactive: -1.85
53 | GGCCAUGAACUUUGAAGAGTT against Uap1 | inactive: 1.4
54 | GCAAGGUCCUUAACGGCAATT against Inpp1 | inactive: -0.276
55 | GGAGACUACUUUGUGUUUUTT against Ermp1 | inactive: 0.933
56 | GCUGGGAUGGUAUCGUUUCTT against Ripk2 | inactive: 0.559
57 | GCCUUUUUAACCAACACAUTT against Gphn | inactive: -0.594
58 | GCCGAGUUACAUCGGUGAUTT against Nup93 | inactive: 1.64
59 | GGAUGAGGCGAUUGAGAUUTT against Clic6 | inactive: -1.05
60 | GGUGAUAACAAUGUCCCUUTT against Lce1f | inactive: -1.08
61 | GUUGAGGAUAACAUUGAACTT against Trp53rka | inactive: -0.0336
62 | CCAAAUGACUAGCACCAGUTT against Arl5c | active: -2.22
63 | GGCAUCUGAACAGGCAGACTT against Acvrl1 | inactive: -0.94
64 | GGUGAUUGGUGUAAAAUCUTT against Gdi2 | inactive: -1.15
65 | GUGUUCAGUAUGCUGGCAGTT against Klra6 | inactive: 1.03
66 | GGAAAAAAUGAACAAGACATT against Dele1 | inactive: 0.959
67 | GCUUCAACCCGGUCACACUTT against Kif6 | active: 2.81
68 | CGUCUCCAUAGAUCUAGAUTT against Creb3 | inactive: -0.748
